Drawing on paper PMC3575409, “Identification of a Novel Protein-Protein Interaction Motif Mediating Interaction of GPCR-Associated Sorting Proteins with G Protein-Coupled Receptors” (PLoS ONE, 2013), this text covers binding for 3 molecules.

Chains of the proteins cited; added tags and fusions are not shown. Residues count along the entry.
UniProt P34972, residues 295-360: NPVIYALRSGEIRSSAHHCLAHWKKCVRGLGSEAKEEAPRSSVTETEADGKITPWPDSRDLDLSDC
UniProt P11229: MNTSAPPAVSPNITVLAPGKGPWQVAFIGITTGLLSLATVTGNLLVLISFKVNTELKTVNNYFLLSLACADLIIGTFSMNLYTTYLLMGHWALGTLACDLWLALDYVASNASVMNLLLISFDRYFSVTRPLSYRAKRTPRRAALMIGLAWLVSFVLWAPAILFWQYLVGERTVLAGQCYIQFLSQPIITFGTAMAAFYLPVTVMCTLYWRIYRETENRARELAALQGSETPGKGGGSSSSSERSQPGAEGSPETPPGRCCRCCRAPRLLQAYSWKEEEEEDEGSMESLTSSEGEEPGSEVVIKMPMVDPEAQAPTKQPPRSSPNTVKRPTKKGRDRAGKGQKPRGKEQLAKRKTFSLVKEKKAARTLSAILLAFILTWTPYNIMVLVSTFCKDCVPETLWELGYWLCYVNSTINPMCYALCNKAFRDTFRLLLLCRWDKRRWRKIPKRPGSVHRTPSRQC
UniProt P08588: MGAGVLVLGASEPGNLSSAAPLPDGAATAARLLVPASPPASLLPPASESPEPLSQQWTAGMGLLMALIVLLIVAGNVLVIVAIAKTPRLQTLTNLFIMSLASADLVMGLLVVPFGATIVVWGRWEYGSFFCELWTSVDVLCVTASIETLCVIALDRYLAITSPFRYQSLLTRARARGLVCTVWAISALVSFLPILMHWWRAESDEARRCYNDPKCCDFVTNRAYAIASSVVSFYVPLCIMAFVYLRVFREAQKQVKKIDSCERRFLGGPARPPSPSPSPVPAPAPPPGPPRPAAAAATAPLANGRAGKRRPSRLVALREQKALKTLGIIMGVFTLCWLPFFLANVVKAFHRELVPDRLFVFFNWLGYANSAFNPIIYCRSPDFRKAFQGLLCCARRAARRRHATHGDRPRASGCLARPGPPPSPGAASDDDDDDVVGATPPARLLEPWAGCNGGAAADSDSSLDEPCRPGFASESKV

No constants are given. Whether binding was seen depends on the method and setting. Binding seen in cells or lysates may run through a third protein. Some results given as binding are weak or reduced against the parent protein; the word gives no strength.

Experiment [1] addresses GST-fused C-tail of the β2 adrenergic receptor (residues 322–413) (human) (UniProt P07550). Put plainly: pull-down; GST-fused receptor C-tails immobilized on glutathione-Sepharose beads, incubated with [35S]-labelled in vitro translated GASPs 1 h at 4°C; 20 mM Tris-HCl pH 7.4, 150 mM NaCl, 1 mM EDTA, 1 mM DTT, 10% glycerol, 1% Triton X-100; Phosphor-imager quantification; only the target purified.

The target of experiment [2] is GST-fused C-tail of the cannabinoid type 2 receptor (residues 295–360) (human) (UniProt P34972). The experiment is described as above.
For experiment [3], the target named is N-terminal GFP-tagged M1 receptor (UniProt P11229). Put plainly: co-IP; lysates of HEK293 cells stably expressing GFP-tagged receptors or MyrPalm-mYFP and transfected with the central domain of GASP-1; anti-GFP antibody and protein A-Sepharose; blot with anti-GASP serum; 0.3% Triton X-100.
The target of experiment [4] is N-terminal GFP-tagged ADRB1 (UniProt P08588). Described as above.
The target in experiment [5] is N-terminal GFP-tagged ADRB2 (UniProt P07550). The description is as above.

B1: GPCR-associated sorting protein 1 (GASP-1), full-length (protein, UniProt Q5JY77 1-1395)
chain: MTGAEIESGAQVKPEKKPGEEVVGGAEIENDVPLVVRPKVRTQAQIMPGARPKNKSKVMPGASTKVETSAVGGARPKSKAKAIPVSRFKEEAQMWAQPRFGAERLSKTERNSQTNIIASPLVSTDSVLVAKTKYLSEDRELVNTDTESFPRRKAHYQAGFQPSFRSKEETNMGSWCCPRPTSKQEASPNSDFKWVDKSVSSLFWSGDEVTAKFHPGNRVKDSNRSMHMANQEANTMSRSQTNQELYIASSSGSEDESVKTPWFWARDKTNTWSGPREDPNSRSRFRSKKEVYVESSSGSEHEDHLESWFGAGKEAKFRSKMRAGKEANNRARHRAKREACIDFMPGSIDVIKKESCFWPEENANTFSRPMIKKEARARAMTKEEAKTKARARAKQEARSEEEALIGTWFWATDESSMADEASIESSLQVEDESIIGSWFWTEEEASMGTGASSKSRPRTDGERIGDSLFGAREKTSMKTGAEATSESILAADDEQVIIGSWFWAGEEVNQEAEEETIFGSWFWVIDAASVESGVGVSCESRTRSEEEEVIGPWFWSGEQVDIEAGIGEEARPGAEEETIFGSWFWAENQTYMDCRAETSCDTMQGAEEEEPIIGSWFWTRVEACVEGDVNSKSSLEDKEEAMIPCFGAKEEVSMKHGTGVRCRFMAGAEETNNKSCFWAEKEPCMYPAGGGSWKSRPEEEEDIVNSWFWSRKYTKPEAIIGSWLWATEESNIDGTGEKAKLLTEEETIINSWFWKEDEAISEATDREESRPEAEEGDIIGSWFWAGEEDRLEPAAETREEDRLAAEKEGIVGSWFGAREETIRREAGSCSKSSPKAEEEEVIIGSWFWEEEASPEAVAGVGFESKPGTEEEEITVGSWFWPEEEASIQAGSQAVEEMESETEEETIFGSWFWDGKEVSEEAGPCCVSKPEDDEEMIVESWFWSRDKAIKETGTVATCESKPENEEGAIVGSWFEAEDEVDNRTDNGSNCGSRTLADEDEAIVGSWFWAGDEAHFESNPSPVFRAICRSTCSVEQEPDPSRRPQSWEEVTVQFKPGPWGRVGFPSISPFRFPKEAASLFCEMFGGKPRNMVLSPEGEDQESLLQPDQPSPEFPFQYDPSYRSVQEIREHLRAKESTEPESSSCNCIQCELKIGSEEFEELLLLMEKIRDPFIHEISKIAMGMRSASQFTRDFIRDSGVVSLIETLLNYPSSRVRTSFLENMIRMAPPYPNLNIIQTYICKVCEETLAYSVDSPEQLSGIRMIRHLTTTTDYHTLVANYMSGFLSLLATGNAKTRFHVLKMLLNLSENLFMTKELLSAEAVSEFIGLFNREETNDNIQIVLAIFENIGNNIKKETVFSDDDFNIEPLISAFHKVEKFAKELQGKTDNQNDPEGDQEN
modifications: [35S]-methionine labelled
Regarding B1, the binding result in experiment [1] and in experiment [2] was “binds” throughout.

B2: GASP-1 truncated mutant 380–1073 (central domain), in vitro translated (domain or fragment, UniProt Q5JY77 380-1073)
chain: MTKEEAKTKARARAKQEARSEEEALIGTWFWATDESSMADEASIESSLQVEDESIIGSWFWTEEEASMGTGASSKSRPRTDGERIGDSLFGAREKTSMKTGAEATSESILAADDEQVIIGSWFWAGEEVNQEAEEETIFGSWFWVIDAASVESGVGVSCESRTRSEEEEVIGPWFWSGEQVDIEAGIGEEARPGAEEETIFGSWFWAENQTYMDCRAETSCDTMQGAEEEEPIIGSWFWTRVEACVEGDVNSKSSLEDKEEAMIPCFGAKEEVSMKHGTGVRCRFMAGAEETNNKSCFWAEKEPCMYPAGGGSWKSRPEEEEDIVNSWFWSRKYTKPEAIIGSWLWATEESNIDGTGEKAKLLTEEETIINSWFWKEDEAISEATDREESRPEAEEGDIIGSWFWAGEEDRLEPAAETREEDRLAAEKEGIVGSWFGAREETIRREAGSCSKSSPKAEEEEVIIGSWFWEEEASPEAVAGVGFESKPGTEEEEITVGSWFWPEEEASIQAGSQAVEEMESETEEETIFGSWFWDGKEVSEEAGPCCVSKPEDDEEMIVESWFWSRDKAIKETGTVATCESKPENEEGAIVGSWFEAEDEVDNRTDNGSNCGSRTLADEDEAIVGSWFWAGDEAHFESNPSPVFRAICRSTCSVEQEPDPSRRPQSWEEVTVQFKPGPWGRVGFPSISPFRFPKE
modifications: [35S]-methionine labelled
In the case of B2, the binding entry in experiment [2] is “binds”.

B3: central domain of GASP-1 (AA 380 to 1073) expressed in HEK293 cells (domain or fragment, UniProt Q5JY77 380-1073)
chain: B2 chain
B3: the binding result in experiment [3], in experiment [4] and in experiment [5] was “binds” throughout.
